Taken from: PubChem BioAssay AID1259405 (NCATS, 2018)
In all, the deposit lists about 50,000 reagents; this is a part drawn at random. Of all reagents, about 4,000 (8%) are marked active. 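Mouse siRNA library applied to hamster cells; one well for each siRNA.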 A number with no mark means an inactive call. Reagents against one gene are numbered here. No sequences are given here.

Purpose: 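Silenced genes that increase secreted GFP made by CHO cells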 (primary screen)
Cells: Chinese hamster CHO-K1 ovary cells with stable secreted eGFP expression
Reagent: single siRNA against mouse genes, 0.8 pmol siRNA per well (2 µl of 400 nM stock)
Timing: 3 days
Measured: 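Percent of the per-plate non-targeting control median for intracellular GFP per well by laser scanning cytometry and for cell viability by ATP luminescence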
Scale: GFP, % of control: higher = more GFP per well, higher productivity; viability (ATP), % of control: higher = more viable cells (more ATP)
Call rule: 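a knock-down is called active if GFP reaches 120% or more of non-targeting control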

Pcm1 (pericentriolar material 1) #1
- GFP, % of control: 69.6
- viability (ATP), % of control: 58

Pcm1 (pericentriolar material 1) #2
- GFP, % of control: 97.1
- viability (ATP), % of control: 46.1

Atp5f1e (ATP synthase F1 subunit epsilon) #1
- GFP, % of control: 98.8
- viability (ATP), % of control: 83.7

Atp5f1e (ATP synthase F1 subunit epsilon) #2
- GFP, % of control: 103
- viability (ATP), % of control: 88.9

Atp5f1e (ATP synthase F1 subunit epsilon) #3
- GFP, % of control: 88.9
- viability (ATP), % of control: 86.3

Chst7 (carbohydrate sulfotransferase 7) #1
- GFP, % of control: 57.2
- viability (ATP), % of control: 63.1

Chst7 (carbohydrate sulfotransferase 7) #2
- GFP, % of control: 47.1
- viability (ATP), % of control: 76.8

Chst7 (carbohydrate sulfotransferase 7) #3
- GFP, % of control: 94
- viability (ATP), % of control: 103

Nipal4 (NIPA-like domain containing 4) #1
- GFP, % of control: 97.1
- viability (ATP), % of control: 106

Nipal4 (NIPA-like domain containing 4) #2
- GFP, % of control: 64.8
- viability (ATP), % of control: 66.7

Nipal4 (NIPA-like domain containing 4) #3
- GFP, % of control: 93.2
- viability (ATP), % of control: 79.4

Plcb3 (phospholipase C, beta 3) #1
- GFP, % of control: 137 (active)
- viability (ATP), % of control: 99.1

Plcb3 (phospholipase C, beta 3) #2
- GFP, % of control: 133 (active)
- viability (ATP), % of control: 118

Plcb3 (phospholipase C, beta 3) #3
- GFP, % of control: 116
- viability (ATP), % of control: 89.9

Lsm12 (LSM12 homolog) #1
- GFP, % of control: 63
- viability (ATP), % of control: 68

Lsm12 (LSM12 homolog) #2
- GFP, % of control: 53
- viability (ATP), % of control: 39.1

Lsm12 (LSM12 homolog) #3
- GFP, % of control: 50.7
- viability (ATP), % of control: 37

6430548M08Rik (RIKEN cDNA 6430548M08 gene) #1
- GFP, % of control: 43.6
- viability (ATP), % of control: 26.4

6430548M08Rik (RIKEN cDNA 6430548M08 gene) #2
- GFP, % of control: 131 (active)
- viability (ATP), % of control: 85.3

6430548M08Rik (RIKEN cDNA 6430548M08 gene) #3
- GFP, % of control: 161 (active)
- viability (ATP), % of control: 158

BC043934 (cDNA sequence BC043934) #1
- GFP, % of control: 53.6
- viability (ATP), % of control: 57.7

BC043934 (cDNA sequence BC043934) #2
- GFP, % of control: 90.5
- viability (ATP), % of control: 83.7

BC043934 (cDNA sequence BC043934) #3
- GFP, % of control: 176 (active)
- viability (ATP), % of control: 131

Cplx1 (complexin 1) #1
- GFP, % of control: 42.1
- viability (ATP), % of control: 80.1

Cplx1 (complexin 1) #2
- GFP, % of control: 74.7
- viability (ATP), % of control: 70.4

Cplx1 (complexin 1) #3
- GFP, % of control: 83.8
- viability (ATP), % of control: 137

Cdx1 (caudal type homeobox 1) #1
- GFP, % of control: 98.8
- viability (ATP), % of control: 97.8

Cdx1 (caudal type homeobox 1) #2
- GFP, % of control: 122 (active)
- viability (ATP), % of control: 103

Cdx1 (caudal type homeobox 1) #3
- GFP, % of control: 105
- viability (ATP), % of control: 86.1

Targets above whose gene name begins with P or p (5):
Pcm1 (pericentriolar material 1) #1
- GFP, % of control: 69.6
- viability (ATP), % of control: 58

Pcm1 (pericentriolar material 1) #2
- GFP, % of control: 97.1
- viability (ATP), % of control: 46.1

Plcb3 (phospholipase C, beta 3) #1
- GFP, % of control: 137 (active)
- viability (ATP), % of control: 99.1

Plcb3 (phospholipase C, beta 3) #2
- GFP, % of control: 133 (active)
- viability (ATP), % of control: 118

Plcb3 (phospholipase C, beta 3) #3
- GFP, % of control: 116
- viability (ATP), % of control: 89.9
